From patent US20070015823A1, “Ambruticin VS compounds” (priority 2004, published 2007)
At least one compound was matched to its structure with a doubt left.

Tested on: S. apiospermum
Test: Broth microdilution antifungal susceptibility, NCCLS M38-A
Format: cell-based, Scedosporium apiospermum

For `CCC(C)n1ncn(-c2ccc(N3CCN(c4ccc(OCC5COC(Cn6cncn6)(c6ccc(Cl)cc6Cl)O5)cc4)CC3)cc2)c1=O` (stereo not shown) [Itraconazole, reference compound], the “MIC S. apiospermum 94-54” value was >2->4.
